The values below come from patent US6339716B1, “Method for determining viability of a myocardial segment” (Bioenergy Inc., priority 1999, dated 2002).

This series relates to patients suspected of having stunned or hibernating myocardium. The experiment in a line: Improvement of ejection fraction during dobutamine echocardiography for prediction of improvement in ejection fraction after CABG. The series is classed as in vivo. Conditions: dobutamine plus D-Ribose, prediction of EF improvement following CABG, 11 patients. The procedure: After completion of the baseline echocardiography, intravenous infusion of test article (D-Ribose or placebo) at a set infusion, along with an infusion of 5% glucose in water (D5W) at 100 ml/hour as a maintenance fluid was initiated. D-Ribose, 10% in water at 180 mg/kg/hour, or placebo D5W at 1.8 mg/kg/hour, were given as sterile, pyrogen-free solutions. After the test article had been administered for one, two, three or four hours, a resting echocardiogram was obtained. At completion of this rest period, dobutamine was infused. Dobutamine hydrochloride (Dobutrex® solution, Eli Lilly, Indianapolis ) was mixed in D5W (5% dextrose in water), giving a concentration of 1.0 mg/ml. During echocardiography, dobutamine was administered at an initial dose of 5 μg/kg/minute for three minutes. The dose of dobutamine was then increased to 10 μg/kg/min and infused for three minutes. Echocardiograms were obtained at the low dose stages and at peak stage. Every three minutes the concentration of dobutamine was increased by 10 μg/kg/minute increments until the standard endpoint was reached. The standard endpoint was set to be a greater than 2 mm ST-segment depression on ECG; significant side effects or arrhythmias; achievement of 85% of the age-predicted maximal heart rate; a systolic blood pressure >250 mm Hg, a significant fall in systolic blood pressure or a maximal dose of 50 μg/kg/minute. The Day 1 and Day 2 dobutamine echocardiograms comprised of resting, 5, 10 μg/kg/minute, and peak dose images were stored and reviewed using the procedures and equipment previously described for the AM and PM images, except that side by side comparison was not performed. Using the previously described scoring system, regional wall motion was graded by consensus by two blinded investigators. Hyperdynamic wall motion during dobutamine infusion was scored as one normal wall motion. A one grade improvement of wall motion during dobutamine infusion was considered significant. Global wall motion scores were derived for each stage of the dobutamine echocardiogram. During low-dose dobutamine infusion (5μ/kg/minute), wall motion improved in more segments on D-Ribose than placebo (65 segments v. 48 segments ). Eleven patients subsequently underwent CABG after completion of Study Day 2. At least one echocardiogram was obtained postoperatively in each of these subjects. Regional wall motion was compared between the follow-up echocardiogram and the Day 1 AM study by two blinded investigators. A single, blinded investigator made determinations of ejection fraction on the AM, PM, dobutamine and any post-revascularization echocardiograms using the four-chamber view and the Simpson's method. Table II summarizes the sensitivity, specificity and accuracy of improvemnent of ejection fraction during dobutamine plus D-Ribose versus dobutamine plus placebo for prediction of improvement in ejection fraction after CABG. Significant improvement is defined as Post-bypass ejection fraction increase ≧10% for analysis 2. The accuracy of dobutamine plus D-Ribose in identifying patients with an increase in ejection fraction (EF) following surgery of greater than or equal to 10% is shown in Table II. […] Eight of the nine, or 89% had been diagnosed using ribose. […] The accuracy of a greater than ten percent improvement in EF after bypass was 73% for dobutamine plus D-Ribose compared to 27% for dobutamine plus placebo. Therefore, the addition of D-Ribose to dobutamine for identification of hibernating or stunned myocardium confers an advantage over the dobutamine alone.

Take `O=C[C@H](O)[C@H](O)[C@H](O)CO` [D-Ribose]: the “Accuracy, Analysis 1: EF Increase ≧ 5%” value is listed as 82 (9/11) %; the “Accuracy, Analysis 2: EF Increase ≧ 10%” value is reported as 73%; the “Sensitivity, Analysis 2: EF Increase ≧ 10%” value is 57% (4/7); the “Specificity, Analysis 1: EF Increase ≧ 5%” value is on record as 50 (1/2) %. Further, the “Specificity, Analysis 2: EF Increase ≧ 10%” value is 100 (4/4) %. For the same molecule, under “listed as Ribose”, the “Accuracy, Analysis 2: EF Increase ≧ 10%” value is 73 (8/11) % and the “Sensitivity, Analysis 1: EF Increase ≧ 5%” value is given as 89% (8/9). Besides, where the note is “listed as ribose”, the “Sensitivity, Analysis 1: EF Increase ≧ 5%” value was 89%.
